The test in a line: qHTS Assay for Lipid Storage Modulators in Drosophila S3 Cells.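 As to cell number change: cells counted by Cell Tracker Red CMTPX staining in the red channel.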 Particulars: BODIPY lipid droplet fluorescence, 18-24 h; for cell number change: measured here: cell count max response, cells fed with added oleic acid. The essentials:
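Drosophila S3 cells loaded with oleic acid (400 uM, as added) and compounds at several concentrations; lipid droplets imaged by 488-nm laser-scanning cytometry, 500–530 nm intensity and object ratio to cell channel. Percent activity normalized to 20 uM Triacsin C.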
In general terms: In qHTS, concentration-response curves come from the screen itself.

Setting [1] is: measured here: lipid fluorescence (Fed channel) AC50, cells fed with added oleic acid.
Where [2] appears, read: measured here: cell number channel AC50, cells fed with added oleic acid.

The structures appear in SMILES notation. This is one part of the list. Shown are side measurements of this screen, not its main read-out; they come without a call. Compounds called inactive in the main read-out are mostly missing here. Words in brackets tell the shape of the fitted curve; partial curves, single points and poor fits give uncertain potencies.

As usually defined, the AC50 is the concentration giving half of the maximal activity seen. On to `COc1cc(/C=C2/NC(=O)N(CC(=O)Nc3ccc(C)cc3)C2=O)ccc1Oc1ccc([N+](=O)[O-])cn1`, for which the cell number change was -11.8%. Besides, the AC50 under setting [1] is 32.6 µM [rising, single point].

As for `Cc1ccc(N2CC(C(=O)Nc3nc4ccc(S(C)(=O)=O)cc4s3)CC2=O)cc1` (configuration not stated), the cell number change was -17.3%. Under setting [1], the AC50 was 0.58 µM [rising, single point].

`CCN(Cc1ccccc1)Cc1ccc(OCc2ccccc2)cc1`: the cell number change came to 1.62%.

Turning to `O=C(CSc1nnc(CNC(=O)c2ccco2)o1)Nc1ccc(F)cc1`, the cell number change is 21.2%. Further, the AC50 under setting [1] is 29.1 µM [rising, single point].

Regarding `COc1ccc(CNC(=O)C(C)N2CCN(c3ccc(C(C)=O)cc3)CC2)cc1` (configuration not stated), the cell number change came to 21.1%.

With `Cc1nc2ccc(NC(=O)c3cnc(Cl)c(Cl)c3)cc2s1`, the cell number change was found to be 9.68%. The AC50 under setting [1] was 29.1 µM [falling, single point].

`O=C(c1ccc(-c2ccccc2Cl)o1)N1CCCC(C(F)(F)F)C1` (configuration not stated): the cell number change was -10.1%.

Take `Cn1cccc1C(C#N)c1ncc(C(F)(F)F)cc1Cl` (configuration not stated): the cell number change was -29.5%.

On to `O=C(NCc1ccccc1)c1ccc(-c2ccccc2F)o1`, for which the cell number change is -38.9%. For the same compound, under setting [2], the AC50 is 32.6 µM [falling, single point]. Moreover, the AC50 under setting [1] was 0.651 µM [falling, partial curve, poor fit].

On to `CC(C)(O)C(=O)NN(C(=O)c1ccccc1)c1cccc(Br)c1`, for which the cell number change was -17.1%. Further, the AC50 under setting [1] is 2.06 µM [falling, partial curve, poor fit].

Regarding `CCCOc1ccc2oc(=O)c3c(c2c1)CCCN3C(=O)CN1CCN(C(=O)c2ccco2)CC1`, the cell number change is -53.4%. In addition, under setting [2], the AC50 is 8.2 µM [falling, partial curve]. Moreover, the AC50 under setting [1] is 6.51 µM [falling, partial curve].

In the case of `COc1ccc(OC)c(N(CC(=O)N2CCN(c3cc(Cl)ccc3C)CC2)S(C)(=O)=O)c1`, the AC50 by setting is: under setting [2], 6.51 µM [rising, single point]; under setting [1], 6.51 µM [rising, single point].

For `COc1ccccc1C(=O)NCCC(=O)NC1=NCCS1`, the cell number change was -11.3%. Further, the AC50 under setting [1] was 0.146 µM [rising, full curve].

For the compound `CCS(=O)(=O)N1CCN(c2ccc([N+](=O)[O-])c(N3CCOCC3)c2)CC1`, under setting [1], the AC50 is 0.411 µM [rising, full curve].

For the compound `Cc1nn(C(C)(C)C)c(OC(=O)c2ccc3c(c2)OCO3)c1Sc1ccccc1`, the AC50 under setting [1] is 2.91 µM [falling, partial curve].

`Cn1c(=O)c([N+](=O)[O-])c(Cl)c2ccccc21`: the cell number change was -53.6%. Moreover, the AC50 under setting [2] was 3.66 µM [falling, full curve]. The AC50 under setting [1] was 2.31 µM [falling, full curve].

As to `C/C(=C\c1ccccc1F)C(=O)c1c(C)cc(C)[nH]c1=O`, the cell number change was determined as 15.7%. The AC50 under setting [1] was 9.2 µM [rising, partial curve, poor fit].

Turning to `Cc1csc(SCC(=O)NC(=O)C2CCCCC2)n1`, the cell number change is -50.8%. In addition, under setting [2], the AC50 is 0.259 µM [falling, full curve]. Besides, the AC50 under setting [1] is 0.517 µM [falling, full curve].

Turning to `CCc1ccc(NC(=O)CN(c2ccccc2)S(=O)(=O)N(C)C)cc1`, the cell number change was -38.6%.

Consider `CS(=O)(=O)N(CC(=O)Nc1c(F)cccc1F)c1cccc([N+](=O)[O-])c1`, for which the cell number change is -17.9%. The AC50 under setting [1] is 4.11 µM [falling, partial curve, poor fit].

With `CC(C)(C)CC(=O)Nc1ccc(S(=O)(=O)N2CCCC2)cc1`, the cell number change was -28.5%. Besides, the AC50 under setting [1] was 18.4 µM [falling, partial curve].

In the case of `CC(CNC(=O)c1ccc(OC2CCN(Cc3ccccn3)CC2)cc1)Oc1cccnc1` (configuration not stated), the cell number change was -10.4%.

Consider `COc1ccc(/C=N/NC(=O)c2ccc(NC(=O)c3ccccc3Br)cc2)cc1`, for which the cell number change was -42.7%. Also, the AC50 under setting [2] was 20.6 µM [falling, partial curve, poor fit]. For the same compound, the AC50 under setting [1] was 18.4 µM [falling, partial curve, poor fit].

As for `COc1ccc(-n2c(Cn3c(=O)sc4ccccc43)nnc2SCC(=O)N2CCOCC2)cc1`, the cell number change is -10.7%. In addition, under setting [1], the AC50 was 29.1 µM [falling, single point].

Take `OCCN(Cc1ccccc1)Cc1ccccc1O`: the cell number change is -35.1%. Under setting [1], the AC50 was 7.31 µM [falling, partial curve].

Consider `CCOC(=O)[C@@H]1[C@H]2COc3ccccc3[C@@H]2N2C(=O)N(c3cccc(Cl)c3)C(=O)[C@@]12C`, for which the cell number change was -15.9%.

With `CCOC(=O)c1c(NC(=O)COC)sc2c1CCCC2`, the AC50 under setting [1] is 1.46 µM [rising, partial curve].

With `CNC(=O)C(C)c1ncc(C(F)(F)F)cc1Cl` (configuration not stated), the cell number change was -14.5%. Besides, the AC50 under setting [1] was 1.3 µM [rising, full curve, poor fit].

`CCOC(=O)CC1C(C(=O)OCC)ON2OC(C(=O)OC)C(C(=O)OCC)C12` (configuration not stated): the cell number change was -13.1%. Besides, the AC50 under setting [1] is 32.6 µM [falling, single point].

For `O=C(CSc1nnnn1C1CCCCC1)Nc1ccc2c(c1)OCO2`, the cell number change stood at 23.6%. Moreover, under setting [1], the AC50 was 2.59 µM [rising, partial curve].

With `CC(CNC(=O)CN1C(=O)NC2(CCCCC2)C1=O)c1ccccc1` (configuration not stated), the cell number change turned out to be 4.17%. Further, the AC50 under setting [1] was 6.51 µM [rising, single point].

As for `CCOC(=O)c1ccc(N2C(=O)CC(N3CCOCC3)C2=O)cc1` (configuration not stated), the cell number change was -0.419%.

Regarding `CCOc1ccc(NC(=O)CC2C(=O)N(c3ccccc3)C(=O)N2CCc2cccs2)cc1` (configuration not stated), the AC50 under setting [1] was 1.03 µM [rising, partial curve].

Take `COc1ccc(OCC(=O)NNC(=O)C2CCN(c3ncnc4sc(C)c(C)c34)CC2)cc1`: the cell number change stood at 13.1%. Besides, the AC50 under setting [1] was 1.84 µM [rising, partial curve, poor fit].

For the compound `c1ccc(CNc2nc3ccccc3n3cnnc23)cc1`, the cell number change was 17.3%.

Turning to `O=C(Nc1ccnn1C1CCN(Cc2ccccc2F)CC1)C1CCCC1`, the cell number change is -9.07%. Further, under setting [1], the AC50 was 0.116 µM [falling, full curve, poor fit].

As for `Cc1cccc(NC(=O)c2ccccc2O)c1C`, the cell number change is -32.8%. Under setting [2], the AC50 is 0.517 µM [falling, full curve, poor fit]. Moreover, the AC50 under setting [1] is 5.17 µM [falling, full curve, poor fit].

Regarding `O=C(COc1ccc(-c2ccccc2)cc1)N1CCCC1`, the cell number change was -32.3%. The AC50 under setting [2] was 13 µM [falling, partial curve]. Further, under setting [1], the AC50 is 2.06 µM [falling, partial curve].

As to `O=C(N/N=C/c1cccc(Cl)c1Cl)Nc1ccccc1`, the cell number change stood at 1.81%. Further, under setting [1], the AC50 was 0.461 µM [falling, partial curve].

(Values after PubChem BioAssay AID2685 (National Center for Advancing Translational Sciences (NCATS), 2010).)
